PMC8575788

Assays:
[1] = target: HA-tagged LAP2α (human); assay: co-IP; HEK293T cells co-transfected with both partners; whole-cell extracts (buffer X: 100 mM Tris-HCl, 250 mM NaCl, 1 mM EDTA, 1% NP-40, Benzonase, sonication) immunoprecipitated with anti-FLAG or anti-HA antibody, immunoblotting
[2] = target: endogenous LAP2α; assay: co-IP; attempt to detect interactions between endogenous proteins; cells and antibody not told
[3] = target: HA-tagged LAP2α (human); assay: co-IP; HEK293T cells transfected with HA-tagged LAP2α alone; whole-cell extracts immunoprecipitated with anti-HA antibody, immunoblotting for endogenous proteins

binding [1]: binds
B1: RFC1 (transiently overexpressed) (protein, UniProt P35251 1-1148)
chain: MDIRKFFGVIPSGKKLVSETVKKNEKTKSDEETLKAKKGIKEIKVNSSRKEDDFKQKQPSKKKRIIYDSDSESEETLQVKNAKKPPEKLPVSSKPGKISRQDPVTYISETDEEDDFMCKKAASKSKENGRSTNSHLGTSNMKKNEENTKTKNKPLSPIKLTPTSVLDYFGTGSVQRSNKKMVASKRKELSQNTDESGLNDEAIAKQLQLDEDAELERQLHEDEEFARTLAMLDEEPKTKKARKDTEAGETFSSVQANLSKAEKHKYPHKVKTAQVSDERKSYSPRKQSKYESSKESQQHSKSSADKIGEVSSPKASSKLAIMKRKEESSYKEIEPVASKRKENAIKLKGETKTPKKTKSSPAKKESVSPEDSEKKRTNYQAYRSYLNREGPKALGSKEIPKGAENCLEGLIFVITGVLESIERDEAKSLIERYGGKVTGNVSKKTNYLVMGRDSGQSKSDKAAALGTKIIDEDGLLNLIRTMPGKKSKYEIAVETEMKKESKLERTPQKNVQGKRKISPSKKESESKKSRPTSKRDSLAKTIKKETDVFWKSLDFKEQVAEETSGDSKARNLADDSSENKVENLLWVDKYKPTSLKTIIGQQGDQSCANKLLRWLRNWQKSSSEDKKHAAKFGKFSGKDDGSSFKAALLSGPPGVGKTTTASLVCQELGYSYVELNASDTRSKSSLKAIVAESLNNTSIKGFYSNGAASSVSTKHALIMDEVDGMAGNEDRGGIQELIGLIKHTKIPIICMCNDRNHPKIRSLVHYCFDLRFQRPRVEQIKGAMMSIAFKEGLKIPPPAMNEIILGANQDIRQVLHNLSMWCARSKALTYDQAKADSHRAKKDIKMGPFDVARKVFAAGEETAHMSLVDKSDLFFHDYSIAPLFVQENYIHVKPVAAGGDMKKHLMLLSRAADSICDGDLVDSQIRSKQNWSLLPAQAIYASVLPGELMRGYMTQFPTFPSWLGKHSSTGKHDRIVQDLALHMSLRTYSSKRTVNMDYLSLLRDALVQPLTSQGVDGVQDVVALMDTYYLMKEDFENIMEISSWGGKPSPFSKLDPKVKAAFTRAYNKEAHLTPYSLQAIKASRHSTSPSLDSEYNEELNEDDSQSDEKDQDAIETDAMIKKKTKSSKPSKPEKDKEPRKGKGKSSKK

binding [2]: no binding
binding [3]: no binding
B2: endogenous RFC1 (protein, UniProt P35251 1-1148)
chain: B1 chain

No constants are given. Whether binding was seen depends on the method and setting. In cells and extracts the contact can be indirect. For part of these data: A result given as binding can be weak or reduced; the word gives no strength. One block for each binder: values may come before it.
